Source: PubChem BioAssay AID1347426 (Functional Genomics Laboratory (NCATS/FGL), 2020)
About 1,400 (4.5%) of roughly 31,000 sequences were called active.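 How the source made its calls: active means median seed-adjusted z-score above 1 or below -1; inactive means the rest.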 The list shows a part of the results.

Test: Novel Modifiers of Survival Motor Neuron (SMN) Protein: Gene Identification via Genome-wide siRNA Screen;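 further: luminescence tracks full-length SMN protein made from the SMN2 reporter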
Details: HEK293T SMN2-luciferase reporter, siRNA knockdown, 72 h; actives lie on both sides
Outline: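 Steps: spot 1 pmol siRNA, add Lipofectamine RNAiMax in serum-free DMEM, seed HEK293T SMN2–luciferase reporter cells; incubate 72 h at 37 °C; add ONE-Glo; normalize luminescence to control siRNA, log10, MAD. Candidates: |MAD| > 1.0.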

Question: For UGAAAUUCCGCAAACACUATT against RBPMS, which median seed-adjusted z-score is on record?
Answer: inactive: 0

Question: Which median seed-adjusted z-score does the source give for GAGCACCUUUGUUCACGUUTT against HTR2B here?
Answer: inactive: -0.325

Question: For GCGGUAUGAUUGAUAAUCUTT against SH3BP4, which median seed-adjusted z-score is on record?
Answer: inactive: -0.0622

Question: Which median seed-adjusted z-score does the source give for GCUUGUAGCUCUUAAGGUUTT against PPP2CA here?
Answer: inactive: 0.731

Question: With GCAUGUCCGAUUUCAACUATT against CPZ as the sequence, how does the median seed-adjusted z-score read?
Answer: inactive: -0.0748

Question: For GCCUCUCUUGACUACAGAATT against ARL10, which median seed-adjusted z-score is on record?
Answer: inactive: -0.455

Question: For GCAGCUCGACUCUCACGUATT against SNAPIN, which median seed-adjusted z-score is on record?
Answer: inactive: -0.132

Question: Which median seed-adjusted z-score does the source give for GCUACGACCCAAAUCGAUATT against GNL1 here?
Answer: inactive: 0.154

Question: For CAGUAUAGGCUUCUAGUAATT against MTIF2, which median seed-adjusted z-score is on record?
Answer: inactive: 0.236

Question: For CGUGAACUGUAACAGCAUUTT against PGC, which median seed-adjusted z-score is on record?
Answer: inactive: 0.884

Question: For GGAGCAUCACAGAUGUAUATT against CCR8, which median seed-adjusted z-score is on record?
Answer: inactive: -0.206

Question: For GCAAUGCCCUUUUCACCGATT against SERPINA5, which median seed-adjusted z-score is on record?
Answer: active: -1.01

Question: For CGAACGACAUGUUCUUGUUTT against CST7, which median seed-adjusted z-score is on record?
Answer: inactive: 0.303

Question: Which median seed-adjusted z-score does the source give for GCAUCAACCUCCAAAUCGATT against SFRS2B here?
Answer: inactive: -0.272

Question: With GGAAGAGUUGGACACCUUATT against ANGPT1 as the sequence, how does the median seed-adjusted z-score read?
Answer: inactive: 0.289

Question: With GCCUGCCUUUUGUCCUUGUTT against HTR6 as the sequence, how does the median seed-adjusted z-score read?
Answer: inactive: -0.463

Question: Which median seed-adjusted z-score does the source give for CGGAAUAAUUCCAUCCAAATT against STX16 here?
Answer: inactive: -0.569

Question: With AGACCGUCAUGCACAAGGATT against PIP5K1C as the sequence, how does the median seed-adjusted z-score read?
Answer: inactive: -0.13

Question: For AGGCUGCAGUGGACAGUUUTT against ZBTB16, which median seed-adjusted z-score is on record?
Answer: inactive: 0.431

Question: For GGAAGUUCUUCUAUGUGAATT against ZNF25, which median seed-adjusted z-score is on record?
Answer: inactive: -0.145

Question: For CCAGGUUGAUAACACUGAUTT against LAP3, which median seed-adjusted z-score is on record?
Answer: inactive: 0.0175

Question: With GGAACUCUAUGGGAACAAUTT against BCL2L1 as the sequence, how does the median seed-adjusted z-score read?
Answer: inactive: 0.0801

Question: For GAAAUACUGCGGUAUAAAATT against SYTL2, which median seed-adjusted z-score is on record?
Answer: inactive: 0.211

Question: With GCUAGUCAAGGUUCCUAAATT against GTF2F2 as the sequence, how does the median seed-adjusted z-score read?
Answer: active: -1.14

Question: With CCCAGAAUGUGCUAAGGUUTT against USP4 as the sequence, how does the median seed-adjusted z-score read?
Answer: inactive: -0.0365

Question: For GUCUAACUGGAAAACCCAATT against CASP3, which median seed-adjusted z-score is on record?
Answer: inactive: -0.874

Question: With CAAGAGCACCGGUAAGGAATT against HSPA2 as the sequence, how does the median seed-adjusted z-score read?
Answer: inactive: -0.0343

Question: With CAAAACUUCUGUGAAAACUTT against ZNF322A as the sequence, how does the median seed-adjusted z-score read?
Answer: inactive: 0.0884

Question: For GGAAUUACUCAUAUGCUAATT against TLR7, which median seed-adjusted z-score is on record?
Answer: inactive: 0.189

Question: For GGAUUUCUACCUUUCCAUATT against CRTAP, which median seed-adjusted z-score is on record?
Answer: inactive: 0.581

Question: Which median seed-adjusted z-score does the source give for UGCUUGGCGACUUCAGUAATT against AKR1C2 here?
Answer: inactive: -0.109

Question: Which median seed-adjusted z-score does the source give for GUACAUCGGAGAUUGACAATT against CRTAM here?
Answer: inactive: 0.346

Question: With GUUCCGUAGUAAGAUGGAATT against GCAT as the sequence, how does the median seed-adjusted z-score read?
Answer: inactive: 0.672

Question: Which median seed-adjusted z-score does the source give for GGAGUUCCAAUGGAAGUUATT against PSMD14 here?
Answer: inactive: 0.375

Question: With GGAGCUAGACGAGAAUGGATT against S100A1 as the sequence, how does the median seed-adjusted z-score read?
Answer: inactive: 0

Question: With ACCGCUCACUGCUUAGAAATT against NHLH1 as the sequence, how does the median seed-adjusted z-score read?
Answer: inactive: -0.0084

Question: Which median seed-adjusted z-score does the source give for CCUGACUUGCUUUGACCAATT against RGS8 here?
Answer: inactive: 0.739

Question: For GCAUGAACGGAAUAUCUCUTT against ULK3, which median seed-adjusted z-score is on record?
Answer: inactive: -0.73

Question: Which median seed-adjusted z-score does the source give for GAACUCCAGUGGGCAAAUUTT against CDC25C here?
Answer: inactive: 0.256

Question: Which median seed-adjusted z-score does the source give for ACCUGACAAGAGACAUAUATT against RAB39B here?
Answer: inactive: 0.485

Question: With GCUUGAAGAGUUUGGCUGGTT against DUSP15 as the sequence, how does the median seed-adjusted z-score read?
Answer: inactive: 0

Question: With GCACGAUAUAUAUAGCUAUTT against RIPK2 as the sequence, how does the median seed-adjusted z-score read?
Answer: inactive: 0.176

Question: Which median seed-adjusted z-score does the source give for GGGCAUCGAACAUCACAAUTT against PLXNC1 here?
Answer: inactive: -0.0792

Question: For GGAUCAGUUCUACAGUGAATT against UGT2B4, which median seed-adjusted z-score is on record?
Answer: inactive: 0.0707

Question: With GCUUGUCAGGUAGAUAUAATT against PCGF6 as the sequence, how does the median seed-adjusted z-score read?
Answer: inactive: 0.536

Question: With GAACAACCGAUCAAGACCATT against FAM47B as the sequence, how does the median seed-adjusted z-score read?
Answer: inactive: -0.0631

Question: Which median seed-adjusted z-score does the source give for GGUCACGGAUUGCUUUUUATT against DUS1L here?
Answer: inactive: 0.0698

Question: With GGAGCAACUUGGUAGUAUATT against MYO3A as the sequence, how does the median seed-adjusted z-score read?
Answer: inactive: 0.0776

Question: With CCACUGAGGAGAUAAGCAATT against ATAD3B as the sequence, how does the median seed-adjusted z-score read?
Answer: inactive: -0.624

Question: With GCUUUACCUUGGACCUGAATT against MPL as the sequence, how does the median seed-adjusted z-score read?
Answer: inactive: -0.0153

Question: Which median seed-adjusted z-score does the source give for GGUGUGAACUACUUCAGCATT against MSN here?
Answer: inactive: -0.736

Question: For GGAAGAACUUUCUCGGUAATT against TIMP2, which median seed-adjusted z-score is on record?
Answer: inactive: 0.0444

Question: Which median seed-adjusted z-score does the source give for AAUCAUCGCUACAAGCUGATT against NKX2-8 here?
Answer: inactive: 0.104

Question: Which median seed-adjusted z-score does the source give for GGAGGACAUUUGUAUCCUUTT against NNT here?
Answer: inactive: 0.336
